Measured values reported in PubChem BioAssay AID493014 (National Center for Advancing Translational Sciences (NCATS), 2011).
Values joined by “and” are separate entries in the source; they are usually repeats but may differ in a detail not shown here. Equal values may be shown once. The campaign covered roughly 340,000 compounds. About 170 (0.05%) were called active. The shares of active, inactive and inconclusive entries below differ from those in the screen. The call rests on the fitted dose curve; in most records, active means well fitted inhibition curve with a large enough effect in the signal ratio, with a control signal flat (not every such curve was filed as active); inconclusive means small, poorly fitted or top-dose-only effect, or effect the other way, or a change in a side signal; inactive means flat fitted curve, though single readings scatter; the % refers to the signal ratio. Where the call is inconclusive, the potency comes from a doubtful curve fit.

assay: qHTS Assay to Find Inhibitors of Chronic Active B-Cell Receptor Signaling; conditions: ABC-DLBCL IkBa-CBG/CBR reporter, luminescence ratio (green luciferase fused to IkBa over red control in TMD8 lymphoma cells), 4 h; activity change, negative = inhibition: at 46.1 µM (top of the series) unless noted;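 on activity change, negative = inhibition: plate controls were basal doxycycline-induced cells for no effect and cells given 10 µM MG132 for full effect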
In short: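 Concentration-response series (up to 46 uM) were applied to TMD8 dual-reporter cells for 4 h at 37C with doxycycline. Green/red ratio, after filter-overlap correction, defined %Activity; red signal alone was normalised to basal cells and zero luminescence.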
Potency means the concentration at half of the fitted maximal effect.

SMILES | activity change, negative = inhibition | Potency
COc1cccc(-n2cnnc2SC(C)C(=O)NC2CCCC2)c1 (configuration not stated) | inactive | 
CCCCCn1c(=O)c(-c2nc3ccccc3[nH]2)c(O)c2ccccc21 | inconclusive: 0.29% | 
COc1ccc(C)cc1-n1nnnc1SCc1nc2ccccc2c(=O)[nH]1 | inconclusive: -5.58% | 
N/C(=N\OC(=O)c1csnn1)c1ccc(C(F)(F)F)cc1 | inactive | 
Clc1ccc2c(N3CCCC3)ccnc2c1 | inactive | 
COC(=O)C1=C(C)NC(C)=C(C(=O)OC)C1C(=O)OC(C)C(=O)c1ccccc1 (configuration not stated) | inconclusive: -0.826% and inconclusive: -2.17% | 
COc1ccc(CCN(C)C(=S)Nc2ccc(SC(F)F)cc2)cc1OC | inactive | 
COc1cccc(/C=C2\SC(=S)N(CCC(=O)Nc3ccc(O)cc3)C2=O)c1 |  | inconclusive: 15.8 µM [falling, partial curve]
Oc1cccc2cnccc12 | inconclusive: 2.48% | 
COc1ccccc1Nc1nnc(SCc2nnc(-c3cc(OC)c(OC)c(OC)c3)o2)s1 | inconclusive: -18.2% | 
COc1ccc(NC(=O)CN(C)S(=O)(=O)c2ccc(Cl)cc2)cc1Cl | inconclusive: -17.2% | 
CN(Cc1cccs1)C(=O)c1cccc(S(=O)(=O)N2CCCCCC2)c1 | inactive | 
Cc1ccc(C(=O)N2CC(=O)Nc3ccc(C)cc3C2c2ccccc2)cc1 (configuration not stated) | inconclusive: -18.4% | 
CCOC(=O)c1ccc(-c2ccc3c(c2)CCC3)nc1C | inconclusive: 6.92% | 
O=C(NC1=NCCS1)c1ccc(Br)s1 | inconclusive: 5.3% | 
Cc1ccc2nc(-c3ccc(SCC(=O)Nc4nnc(C)s4)nc3)[nH]c2c1 | inconclusive: -6.5% | 
C=CCn1cccc(C(=O)Nc2cc(OC)ccc2OC)c1=O | inconclusive: -16.1% | 
Cc1ccccc1C(=O)NNS(=O)(=O)c1cccc([N+](=O)[O-])c1 |  | inconclusive: 11.2 µM [falling, partial curve, poor fit]
CCOC(=O)c1c(NC(=O)c2cc(-c3ccc(O)cc3)on2)sc(C(C)=O)c1C | inactive | 
Cc1cccc(Nc2ncnc3onc(-c4ccc(F)cc4)c23)c1C | inconclusive: -8.06% | 
S=C(NCCc1c[nH]c2ccccc12)NC1CCCC1 | inconclusive: -28.8% | 

Looked up above.
Value for CN(Cc1cccs1)C(=O)c1cccc(S(=O)(=O)N2CCCCCC2)c1 under activity change, negative = inhibition: inactive
Value for COc1cccc(/C=C2\SC(=S)N(CCC(=O)Nc3ccc(O)cc3)C2=O)c1 under Potency: inconclusive: 15.8 µM [falling, partial curve]
Value for COc1cccc(-n2cnnc2SC(C)C(=O)NC2CCCC2)c1 (configuration not stated) under activity change, negative = inhibition: inactive
Value for N/C(=N\OC(=O)c1csnn1)c1ccc(C(F)(F)F)cc1 under activity change, negative = inhibition: inactive

Continued:

SMILES | activity change, negative = inhibition | Potency
COc1ccc(C2(CNC(=O)c3cccc([N+](=O)[O-])c3)CCOCC2)cc1OC |  | inconclusive: 20.6 µM [falling, partial curve, poor fit]
CC(C)CC(N=Cc1c(O)c2ccccc2oc1=O)C(=O)O (configuration not stated) |  | inconclusive: 10 µM [falling, partial curve]
O=C1c2ccccc2N2C(=O)c3ccccc3C2N1O (configuration not stated) | inconclusive: -1.96% | 
CCCCN(C(=O)Cc1coc2cc(C)c(C)cc12)c1c(N)n(Cc2ccccc2)c(=O)[nH]c1=O | inconclusive: 13.2% | 
O=S(=O)(c1ccc(Br)cc1)N1CCN(c2ccc3nnc(-c4ccccc4)n3n2)CC1 | inconclusive: -0.441% | 
Cc1cc(C(=O)NC(=S)Nc2cccc(NC(=O)C(C)C)c2)ccc1[N+](=O)[O-] | inconclusive: 3.51% | 
COCCCNC(=S)N1CCN(c2ccccc2)CC1 | inactive | 
C=CCSc1nc2c(c(C3CC=CCC3)c1C#N)CCC2 (configuration not stated) | inconclusive: 26.1% | 
CC(C)n1cc(C(=O)N2CCCC(N3CCN(c4cccc(Cl)c4)CC3)C2)cn1 (configuration not stated) | inconclusive: -0.393% | 
C/C(=C\c1ccccc1)CN1CCN(Cc2ccc(C)o2)C(CCO)C1 (configuration not stated) | inconclusive: 6.96% | 
O=C(C1CCCN(c2ncnc3c2nc2n3CCCCC2)C1)N1CCN(c2ccccc2F)CC1 (configuration not stated) | inconclusive: -11.6% | 
O=C(CN1CCOCC1)Nc1ccccc1C(=O)Nc1ccccc1 | inconclusive: -0.598% | 
Cc1cccc(OC(=O)n2c(=S)oc3cc(Cl)ccc32)c1 | inactive | 
COc1ccccc1C(=O)NCC(=O)NC1CCCc2ccccc21 (configuration not stated) |  | inconclusive: 11.2 µM [falling, partial curve]
Cc1ccccc1NC(=O)Cn1c(NCC(C)O)nc2ccccc21 (configuration not stated) | inactive | 
CN(c1ccc(C(=O)N2CCN(Cc3ccc4c(c3)OCO4)CC2)cc1)S(=O)(=O)c1ccccc1 | inconclusive: -7.76% | 
CCC(CO)Nc1nc2ccc(Cl)cc2c2ccccc12 (configuration not stated) | inconclusive: 18.6% | 
O=C(Cn1cnc([N+](=O)[O-])c1)Nc1ccc(F)c(Cl)c1 | inconclusive: -14.3% | 
COC(=O)c1ccc(NC(=O)c2cccc(C)c2)cc1 |  | inconclusive: 17.8 µM [falling, partial curve]
O=[N+]([O-])c1cc(F)c(N2CCCCC2)cc1N1CCOCC1 | inconclusive: 15.8% | 
COc1cc(C(F)(F)F)ccc1C(=O)NCCc1ccco1 | inconclusive: 8.52% | 

SMILES | activity change, negative = inhibition | Potency
COc1cccc2c1cc1c(=O)n(CC(=O)NC3CCCCC3)nc(C)n12 | inactive | 
CC(C)c1nc(N2CCN(C(=O)c3ccco3)CC2)c(C#N)c2c1COC(C)(C)C2 |  | inconclusive: 35.5 µM [rising, single point]
CCOc1ccc(Oc2c(/C=N/NC(=O)COc3ccccc3OC)c(C)nn2-c2ccccc2)cc1 | inconclusive: -3.28% | 
Cc1cc(/C=N/n2cnnc2)c(O)c([N+](=O)[O-])c1 | inconclusive: 4.94% | 
Cc1cccc(N2CCN(S(=O)(=O)c3c(C)noc3/C=C/N(C)C)CC2)c1C | inactive | 
COc1cccc(CN(C)C(=O)CCNC(=O)c2ccco2)c1 | inactive | 
O=C(Nc1cccc(NC(=O)c2cccs2)c1)c1ccc2c(c1)OCO2 | inconclusive: -10.5% | 
CCCCNC(=O)C(C#N)c1nc2ccccc2nc1N1CCCC1 (configuration not stated) | inconclusive: 12.7% | 
CS(=O)(=O)c1ccc2nc(NC(=O)CCC(=O)c3cccs3)sc2c1 | inconclusive: 0.695% | 
CC1(C)Cc2ccccc2C(N/N=C/c2ccc(Cl)cc2)=N1 | inconclusive: 11.7% | 
COc1ccc(CCNC(=O)c2cc(-c3cc(C)ccc3O)n[nH]2)cc1OC |  | inconclusive: 29.1 µM [falling, single point]
COc1ccc(NC(=O)CSc2nnc(-c3ccco3)n2N)cc1Cl |  | inconclusive: 14.1 µM [falling, partial curve]
COc1cc2nc(COc3ccc(C#N)cc3)n(CC#N)c(=O)c2cc1OC | inconclusive: 5.33% | 
Cc1ccc2nc(-c3ccccc3)c(NC(=O)c3ccco3)n2c1 |  | inconclusive: 9.2 µM [falling, partial curve]
CC(=O)Nc1ccc(C(=O)OCC(=O)Nc2ccccc2F)cc1 | inconclusive: -30% | 
CCCC(=O)Nc1nc2ccc(OC)cc2s1 |  | inconclusive: 20.6 µM [falling, single point]
CCN(CC)S(=O)(=O)c1ccc(N2CCOCC2)c(NC(=O)COc2ccc(OC)cc2)c1 | inconclusive: -0.967% | 
CCc1nnc(NC(=O)Cc2ccc(Br)cc2)s1 | inconclusive: 5.3% | 
COc1cc(OC)c(OC)cc1CNCCNC(=O)c1ccco1 | inactive | 
O=[N+]([O-])c1ccc(O)c(C=Nc2ccc3oc(Cc4ccc(Cl)cc4)nc3c2)c1 | inconclusive: -20.1% | 
COc1ccccc1-n1cnnc1SCC(=O)c1ccc[nH]1 | inconclusive: 0.0791% | 

SMILES | activity change, negative = inhibition | Potency
Nc1c(C(=O)N2CCOCC2)sc2nc(N3CCOCC3)c3c(c12)CCCC3 |  | inconclusive: 10 µM [falling, partial curve]
Cc1cc(Cl)n2nc(C)c(-c3ccc(Cl)cc3)c2n1 |  | inconclusive: 12.6 µM [falling, partial curve, poor fit]
COc1cccc(CN(C(=O)COc2ccc(C)cc2)C2CCS(=O)(=O)C2)c1 (configuration not stated) | inconclusive: -27.2% | 
COc1ccc(CCNc2nc(-c3ccc(F)cc3)c(CC(=O)O)s2)cc1OC | inconclusive: 5.92% | 
COc1ccc(F)cc1C(=O)C1CCCN(Cc2cn(C)c3ccccc23)C1 (configuration not stated) | inconclusive: -17.3% | 
COC(=O)c1cccc(COC(=O)CNC(=O)c2ccco2)c1 | inconclusive: 2.11% | 
COc1ccc(S(=O)(=O)N2CCOCC2)cc1NC(=O)Cc1ccc2c(c1)OCCO2 | inactive | 
NC(=O)CSc1oc(-c2ccco2)nc1S(=O)(=O)c1ccc(Cl)cc1 | inactive | 
CCCOc1ccc(N2C(=O)CC(N(Cc3ccc(S(N)(=O)=O)cc3)C(=O)CC)C2=O)cc1 (configuration not stated) |  | inconclusive: 5.8 µM [falling, partial curve, poor fit]
C#CCNC(=O)C1=C[C@H](C(C)(C)C)C[C@H](OCc2ccc(CO)cc2)O1 | inactive | 
NC(=O)c1ccccc1OCC(=O)N1CCC(Cc2ccccc2)CC1 | inactive | 
COc1ccc(NC(=O)c2ccc(Cl)nc2)cc1S(=O)(=O)N1CCCCC1 | inconclusive: 12.8% | 
OCCN1CCN(CC/C=C2/c3ccccc3Sc3ccc(C(F)(F)F)cc32)CC1 |  | inconclusive: 18.4 µM [falling, single point]
COc1ccc([C@]23Cc4ccccc4C(O2)c2c(cc(C)n(Cc4ccccc4)c2=O)O3)cc1 | inconclusive: 15.4% [at 9.22 µM] | 
COc1cc(OC)cc(-n2nnnc2SCC(=O)Nc2nc3c(s2)CCCC3)c1 | inconclusive: 6.31% | 
COc1ccccc1-c1noc(CCC(=O)Nc2cc(C(F)(F)F)ccc2Cl)n1 | inconclusive: -11.7% | 
O=C(NC(NNc1ccc([N+](=O)[O-])cc1)(C(F)(F)F)C(F)(F)F)c1ccc(F)cc1 | inconclusive: -0.131% | 
O=C(NCC(c1ccccc1Cl)N1CCCC1)C1CCN(C(=O)Nc2ccccc2)CC1 (configuration not stated) | inactive | 
CC1CCCCC12NC(=O)N(CC(=O)NC(=O)NCc1ccco1)C2=O (configuration not stated) |  | inconclusive: 25.9 µM [falling, single point]
